Assay: Photo acid generation function (actinometry of acid generation, quantum yield)
Format: physicochemical
Details: 0.05 mol/L acetonitrile solution, 290 nm light from xenon lamp, acid observed by tetrabromophenol blue absorption at 610 nm

O=C(OCC(F)(F)S(=O)(=O)O)C12CC3CC(CC(O)(C3)C1)C2 [Synthesis Example 11, triphenylsulfonium 2-(3′-hydroxy-1′-adamantane)carbonyloxy-1,1-difluoroethanesulfonate]
quantum yield of acid generation: 0.20

O=C(OCC(F)(F)S(=O)(=O)O)C12CC3CC(CC(C3)C1)C2 [Synthesis Example 8, triphenylsulfonium 2-(1′-adamantane)carbonyloxy-1,1-difluoroethanesulfonate]
quantum yield of acid generation: 0.21

Reference: patent US20130130175A1, “Compound for Photoacid Generator, Resist Composition Using the Same, and Pattern-Forming Method” (CENTRAL GLASS COMPANY, LIMITED, priority 2007, published 2013)
